Experimental data reported in PubChem BioAssay AID539 (SRMLSC, 2006).
The list shows a part of the results.

test system: phosphomevalonate kinase (Streptococcus pneumoniae D39); experiment: S. pneumoniae PMK inhibitors, primary screen, biochemical, mevalonate pathway, pilot trial included (AID 539); conditions: purified PMK, PK/LDH-coupled NADH absorbance 340 nm; measured here: pilot screen replicates; at 10 µM; stronger effect = higher value;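 note: 0% = full reaction with DMSO carrier and 100% = background rate without enzyme reaction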

Question: `COP1(=S)c2c(C)nn(CCC#N)c2N=C(c2ccc(F)cc2)N1C` (stereo not given) was tested. Which inhibition did it give?
Answer: 0.5%

Question: `O=C(COc1ccccc1)OC1CN2CCC1CC2` (stereo not given) was tested. Which inhibition did it give?
Answer: 0%

Question: For `CP(=S)(Nn1cnnc1)Oc1ccccc1` (stereo not given), which inhibition is on record?
Answer: 3%

Question: For `Cc1nn(-c2ccccc2)c2c1P(=O)(N1CCOCC1)N(C)C(c1ccccc1)=N2` (stereo not given), which inhibition is on record?
Answer: 0%

Question: Which inhibition does the source give for `Cc1ccc(C)c(NP(C)(=O)Oc2ccccc2)c1` (stereo not given) here?
Answer: 1.5%

Question: How did the inhibition turn out when `CCOP1(=S)c2c(C)nn(CCC#N)c2N=C(c2ccccc2F)N1C` (stereo not given) was run?
Answer: 1%

Question: With `O=P(Nc1nccs1)(c1ccccc1)c1ccccc1` as the compound, how does the inhibition read?
Answer: 2.5%

Question: With `CP(=O)(Nc1ccc2c(c1)OCCO2)Oc1ccccc1` (stereo not given) as the compound, how does the inhibition read?
Answer: 5.5%

Question: With `CN(C)CCOC(=O)C(O)(c1ccccc1)C1CCCCC1` (stereo not given) as the compound, how does the inhibition read?
Answer: 2.5%

Question: With `CP(=O)(Nc1ccccn1)Oc1ccccc1` (stereo not given) as the compound, how does the inhibition read?
Answer: 0.5%
